These are yes or no findings as the source states them, for the method shown. Binding seen in cells or lysates may run through a third protein. Some entries that bind do so weakly or less than the wild type. Tags and fused reporters may be left off the sequences shown.
Key:
[1] = target: T1, KIFC1-Flag (kinesin family member C1), stably expressed in HepG2 cells (human) (UniProt Q9BW19); test: co-IP; HepG2-vector and HepG2-KIFC1-Flag cell lysates; Flag tag antibody and HMGA1 antibody (ab129153); western blot
T1 sequence: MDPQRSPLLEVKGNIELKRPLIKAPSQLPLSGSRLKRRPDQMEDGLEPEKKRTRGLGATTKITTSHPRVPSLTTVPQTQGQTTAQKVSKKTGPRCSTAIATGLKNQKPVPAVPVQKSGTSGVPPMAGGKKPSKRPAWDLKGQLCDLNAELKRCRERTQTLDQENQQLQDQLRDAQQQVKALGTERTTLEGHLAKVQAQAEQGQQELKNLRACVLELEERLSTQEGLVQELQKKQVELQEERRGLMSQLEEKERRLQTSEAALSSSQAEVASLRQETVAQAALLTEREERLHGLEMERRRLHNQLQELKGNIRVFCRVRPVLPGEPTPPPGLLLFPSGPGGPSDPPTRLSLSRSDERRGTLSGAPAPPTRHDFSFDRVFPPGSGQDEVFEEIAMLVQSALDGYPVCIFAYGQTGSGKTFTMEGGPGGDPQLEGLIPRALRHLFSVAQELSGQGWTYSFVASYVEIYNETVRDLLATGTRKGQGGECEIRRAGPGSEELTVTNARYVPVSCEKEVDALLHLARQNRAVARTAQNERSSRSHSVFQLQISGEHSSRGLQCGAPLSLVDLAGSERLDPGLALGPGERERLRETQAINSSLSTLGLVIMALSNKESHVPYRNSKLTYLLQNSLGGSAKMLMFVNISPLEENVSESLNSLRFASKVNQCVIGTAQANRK

The chains behind the UniProt entries cited, without tags or fusion partners.
UniProt P17096: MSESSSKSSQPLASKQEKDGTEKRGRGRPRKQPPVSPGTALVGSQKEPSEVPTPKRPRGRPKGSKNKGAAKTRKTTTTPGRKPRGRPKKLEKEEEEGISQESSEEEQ

[2] = target: T2, Flag-KIFC1, transfected in HEK-293 T cells (human) (UniProt Q9BW19); test: co-IP; HEK-293 T cells transfected with Flag-KIFC1 or Myc-HMGA1 or both; Flag-tag and Myc-tag antibodies; western blot
T2 sequence: T1 sequence

Row | Substance | binding [1] | binding [2]
1 | HMGA1 (high mobility group AT-hook 1), endogenous in HepG2 cells (from UniProt P17096 1-107) | binds | 
2 | Myc-HMGA1, transfected in HEK-293 T cells (from UniProt P17096 1-107) |  | binds
